Experimental data taken from the supplement of paper PMC6411743.
± gives the standard deviation of the averaged measurements. The entries are a selection whose mix differs from that of the whole data set. Most entries show no effect beyond the scatter of the controls.

Amino acid sequences for entries named in this document (tags omitted). A change or cut given only in a name is not applied to a line headed by its entry.
UniProt Q5TCQ9: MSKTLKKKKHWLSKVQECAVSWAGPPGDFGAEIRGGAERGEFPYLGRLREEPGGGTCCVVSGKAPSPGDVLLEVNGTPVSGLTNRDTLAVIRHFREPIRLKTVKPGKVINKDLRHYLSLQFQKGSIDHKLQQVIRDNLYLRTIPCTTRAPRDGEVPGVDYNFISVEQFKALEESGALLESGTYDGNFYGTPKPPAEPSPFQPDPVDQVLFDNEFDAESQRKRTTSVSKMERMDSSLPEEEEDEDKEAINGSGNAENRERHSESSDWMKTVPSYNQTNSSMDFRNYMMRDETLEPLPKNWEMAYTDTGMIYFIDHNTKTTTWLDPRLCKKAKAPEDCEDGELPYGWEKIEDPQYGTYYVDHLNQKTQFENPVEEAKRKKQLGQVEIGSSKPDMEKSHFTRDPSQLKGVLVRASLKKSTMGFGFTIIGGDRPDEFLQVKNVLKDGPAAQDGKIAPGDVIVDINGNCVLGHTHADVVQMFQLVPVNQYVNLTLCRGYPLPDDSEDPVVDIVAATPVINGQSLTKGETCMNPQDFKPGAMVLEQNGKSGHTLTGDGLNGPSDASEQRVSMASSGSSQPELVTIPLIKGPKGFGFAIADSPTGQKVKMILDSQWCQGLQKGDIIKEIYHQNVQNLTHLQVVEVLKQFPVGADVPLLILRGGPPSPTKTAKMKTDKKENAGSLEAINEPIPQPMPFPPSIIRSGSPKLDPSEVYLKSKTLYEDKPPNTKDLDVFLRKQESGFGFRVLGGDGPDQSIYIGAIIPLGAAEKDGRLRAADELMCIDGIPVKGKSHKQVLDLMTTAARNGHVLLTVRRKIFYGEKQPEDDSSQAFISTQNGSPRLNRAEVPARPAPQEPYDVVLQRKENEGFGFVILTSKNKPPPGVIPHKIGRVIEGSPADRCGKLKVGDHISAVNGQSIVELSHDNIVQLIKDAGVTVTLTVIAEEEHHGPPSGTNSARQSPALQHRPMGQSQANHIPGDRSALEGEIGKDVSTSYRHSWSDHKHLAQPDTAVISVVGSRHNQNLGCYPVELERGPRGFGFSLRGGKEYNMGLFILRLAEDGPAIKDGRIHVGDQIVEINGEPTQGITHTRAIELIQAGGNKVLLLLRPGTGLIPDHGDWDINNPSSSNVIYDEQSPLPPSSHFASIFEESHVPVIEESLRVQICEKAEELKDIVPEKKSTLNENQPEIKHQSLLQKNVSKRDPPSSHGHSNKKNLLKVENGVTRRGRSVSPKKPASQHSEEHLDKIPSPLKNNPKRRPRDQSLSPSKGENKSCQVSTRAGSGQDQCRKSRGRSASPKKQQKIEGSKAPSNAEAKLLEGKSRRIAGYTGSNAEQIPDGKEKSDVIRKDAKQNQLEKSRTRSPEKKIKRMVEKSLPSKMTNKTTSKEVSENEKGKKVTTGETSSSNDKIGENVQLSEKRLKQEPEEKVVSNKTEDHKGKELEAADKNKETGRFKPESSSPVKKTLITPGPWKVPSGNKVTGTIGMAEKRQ
UniProt Q68DH5: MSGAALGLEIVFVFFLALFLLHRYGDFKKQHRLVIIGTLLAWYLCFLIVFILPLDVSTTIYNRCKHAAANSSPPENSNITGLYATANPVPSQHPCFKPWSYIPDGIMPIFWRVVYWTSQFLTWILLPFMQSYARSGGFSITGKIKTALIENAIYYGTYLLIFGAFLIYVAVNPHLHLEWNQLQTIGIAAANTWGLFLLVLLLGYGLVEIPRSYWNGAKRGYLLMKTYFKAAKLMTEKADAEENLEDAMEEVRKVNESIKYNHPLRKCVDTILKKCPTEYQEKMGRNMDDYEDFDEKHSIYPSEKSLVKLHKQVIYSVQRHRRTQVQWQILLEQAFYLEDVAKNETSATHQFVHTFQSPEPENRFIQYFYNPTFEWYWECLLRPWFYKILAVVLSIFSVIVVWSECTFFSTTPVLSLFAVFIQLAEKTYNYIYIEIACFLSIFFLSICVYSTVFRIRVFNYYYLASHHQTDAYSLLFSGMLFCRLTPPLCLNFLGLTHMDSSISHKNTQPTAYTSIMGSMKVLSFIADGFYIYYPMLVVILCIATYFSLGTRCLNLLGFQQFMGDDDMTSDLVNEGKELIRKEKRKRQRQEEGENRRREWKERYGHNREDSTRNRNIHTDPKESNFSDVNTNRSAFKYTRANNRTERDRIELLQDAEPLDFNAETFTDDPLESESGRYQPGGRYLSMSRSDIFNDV
UniProt Q6P1K2: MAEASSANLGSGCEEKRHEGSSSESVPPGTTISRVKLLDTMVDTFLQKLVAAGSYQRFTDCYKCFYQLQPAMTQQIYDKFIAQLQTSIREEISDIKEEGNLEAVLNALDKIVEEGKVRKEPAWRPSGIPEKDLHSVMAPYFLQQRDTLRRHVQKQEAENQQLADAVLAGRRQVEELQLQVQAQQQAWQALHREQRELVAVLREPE
UniProt Q5JTD0: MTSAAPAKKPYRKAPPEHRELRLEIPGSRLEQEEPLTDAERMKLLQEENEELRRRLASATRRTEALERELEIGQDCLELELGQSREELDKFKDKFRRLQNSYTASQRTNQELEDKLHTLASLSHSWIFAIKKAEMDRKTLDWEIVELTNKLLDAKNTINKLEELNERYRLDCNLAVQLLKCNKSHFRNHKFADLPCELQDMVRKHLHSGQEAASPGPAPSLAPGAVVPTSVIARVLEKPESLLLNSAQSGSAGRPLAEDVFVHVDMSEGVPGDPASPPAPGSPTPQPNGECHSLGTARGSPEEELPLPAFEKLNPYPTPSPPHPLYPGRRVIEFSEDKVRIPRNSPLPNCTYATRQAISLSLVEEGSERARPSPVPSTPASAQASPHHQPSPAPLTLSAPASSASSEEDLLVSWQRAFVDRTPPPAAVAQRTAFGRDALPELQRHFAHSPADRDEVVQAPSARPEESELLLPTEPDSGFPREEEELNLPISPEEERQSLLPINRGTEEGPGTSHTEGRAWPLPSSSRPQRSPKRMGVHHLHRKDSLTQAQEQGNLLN
UniProt Q6P179: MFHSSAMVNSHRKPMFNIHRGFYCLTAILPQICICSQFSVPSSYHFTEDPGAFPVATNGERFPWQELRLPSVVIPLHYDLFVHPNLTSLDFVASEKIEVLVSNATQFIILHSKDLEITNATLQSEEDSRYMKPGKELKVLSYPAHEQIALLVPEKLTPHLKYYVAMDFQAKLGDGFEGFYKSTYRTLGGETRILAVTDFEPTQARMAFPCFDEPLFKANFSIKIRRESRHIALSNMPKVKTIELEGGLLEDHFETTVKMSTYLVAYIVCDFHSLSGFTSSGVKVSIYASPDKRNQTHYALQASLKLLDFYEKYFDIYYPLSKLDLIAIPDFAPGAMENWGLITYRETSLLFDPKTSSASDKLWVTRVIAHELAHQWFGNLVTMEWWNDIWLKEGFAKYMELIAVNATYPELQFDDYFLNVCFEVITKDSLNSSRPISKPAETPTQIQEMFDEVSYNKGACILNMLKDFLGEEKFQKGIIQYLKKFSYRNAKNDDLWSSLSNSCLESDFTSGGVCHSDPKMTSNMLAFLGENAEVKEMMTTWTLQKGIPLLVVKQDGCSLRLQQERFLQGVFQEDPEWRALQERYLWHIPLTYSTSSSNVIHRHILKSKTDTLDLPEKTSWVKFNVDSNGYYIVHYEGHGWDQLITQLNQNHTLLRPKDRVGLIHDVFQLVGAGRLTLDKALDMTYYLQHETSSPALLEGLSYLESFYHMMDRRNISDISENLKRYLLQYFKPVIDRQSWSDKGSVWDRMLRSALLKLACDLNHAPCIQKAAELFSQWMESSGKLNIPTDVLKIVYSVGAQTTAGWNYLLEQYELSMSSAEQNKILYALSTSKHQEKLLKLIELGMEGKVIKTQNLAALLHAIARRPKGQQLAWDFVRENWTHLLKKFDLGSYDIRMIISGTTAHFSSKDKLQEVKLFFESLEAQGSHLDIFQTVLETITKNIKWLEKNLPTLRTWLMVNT
UniProt Q6JBY9, whole entry: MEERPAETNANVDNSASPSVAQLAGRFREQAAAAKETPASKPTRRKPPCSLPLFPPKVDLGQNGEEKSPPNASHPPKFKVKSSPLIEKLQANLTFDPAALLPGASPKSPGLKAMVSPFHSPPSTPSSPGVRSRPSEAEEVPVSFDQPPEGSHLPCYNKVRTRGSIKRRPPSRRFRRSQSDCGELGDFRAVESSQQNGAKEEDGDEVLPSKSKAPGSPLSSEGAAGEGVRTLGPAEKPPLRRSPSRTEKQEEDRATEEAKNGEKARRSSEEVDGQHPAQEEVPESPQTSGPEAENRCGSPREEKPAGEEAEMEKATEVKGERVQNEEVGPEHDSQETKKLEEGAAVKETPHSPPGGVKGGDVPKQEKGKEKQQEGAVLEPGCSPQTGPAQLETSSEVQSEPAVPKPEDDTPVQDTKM
UniProt Q5T3I0: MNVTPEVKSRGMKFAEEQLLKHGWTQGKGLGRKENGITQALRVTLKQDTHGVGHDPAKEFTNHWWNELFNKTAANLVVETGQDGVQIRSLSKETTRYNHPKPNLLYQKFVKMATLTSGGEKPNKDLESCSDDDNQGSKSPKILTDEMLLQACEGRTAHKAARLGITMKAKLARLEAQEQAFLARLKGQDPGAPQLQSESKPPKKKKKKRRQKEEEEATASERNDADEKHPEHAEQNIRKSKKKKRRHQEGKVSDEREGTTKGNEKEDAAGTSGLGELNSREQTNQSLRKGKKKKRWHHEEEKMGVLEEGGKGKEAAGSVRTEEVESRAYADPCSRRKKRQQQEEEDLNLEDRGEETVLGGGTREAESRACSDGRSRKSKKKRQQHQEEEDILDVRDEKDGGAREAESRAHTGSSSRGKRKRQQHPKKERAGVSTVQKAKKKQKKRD
UniProt Q6GMV3: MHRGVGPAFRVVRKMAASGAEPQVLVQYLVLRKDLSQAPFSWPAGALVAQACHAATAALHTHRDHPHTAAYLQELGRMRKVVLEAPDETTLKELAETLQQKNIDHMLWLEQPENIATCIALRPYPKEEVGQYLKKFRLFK
UniProt Q8TAK5: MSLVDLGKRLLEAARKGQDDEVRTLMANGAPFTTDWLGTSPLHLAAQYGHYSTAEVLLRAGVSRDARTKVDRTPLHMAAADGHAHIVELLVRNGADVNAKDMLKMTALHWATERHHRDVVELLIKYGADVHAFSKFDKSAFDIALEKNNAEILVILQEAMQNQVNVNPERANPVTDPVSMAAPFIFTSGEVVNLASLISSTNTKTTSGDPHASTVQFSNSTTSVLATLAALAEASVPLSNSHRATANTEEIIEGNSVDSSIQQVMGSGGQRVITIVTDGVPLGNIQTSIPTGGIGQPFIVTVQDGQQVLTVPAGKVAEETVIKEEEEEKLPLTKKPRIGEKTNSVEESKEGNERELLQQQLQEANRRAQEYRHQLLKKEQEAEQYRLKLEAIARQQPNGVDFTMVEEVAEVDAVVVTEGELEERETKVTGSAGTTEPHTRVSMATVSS
UniProt Q6DKJ4: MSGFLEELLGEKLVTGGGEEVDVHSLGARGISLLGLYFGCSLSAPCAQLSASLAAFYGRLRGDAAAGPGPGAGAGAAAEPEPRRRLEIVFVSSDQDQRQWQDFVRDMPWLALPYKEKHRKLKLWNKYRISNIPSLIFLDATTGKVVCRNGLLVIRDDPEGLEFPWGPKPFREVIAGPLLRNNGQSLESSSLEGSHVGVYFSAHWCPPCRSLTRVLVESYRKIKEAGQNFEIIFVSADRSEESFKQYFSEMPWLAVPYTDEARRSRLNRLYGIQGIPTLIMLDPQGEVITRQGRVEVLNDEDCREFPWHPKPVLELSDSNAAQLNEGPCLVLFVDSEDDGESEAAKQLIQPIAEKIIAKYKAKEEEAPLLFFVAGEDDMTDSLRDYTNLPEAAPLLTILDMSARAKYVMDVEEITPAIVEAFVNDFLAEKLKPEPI
UniProt Q53HC9: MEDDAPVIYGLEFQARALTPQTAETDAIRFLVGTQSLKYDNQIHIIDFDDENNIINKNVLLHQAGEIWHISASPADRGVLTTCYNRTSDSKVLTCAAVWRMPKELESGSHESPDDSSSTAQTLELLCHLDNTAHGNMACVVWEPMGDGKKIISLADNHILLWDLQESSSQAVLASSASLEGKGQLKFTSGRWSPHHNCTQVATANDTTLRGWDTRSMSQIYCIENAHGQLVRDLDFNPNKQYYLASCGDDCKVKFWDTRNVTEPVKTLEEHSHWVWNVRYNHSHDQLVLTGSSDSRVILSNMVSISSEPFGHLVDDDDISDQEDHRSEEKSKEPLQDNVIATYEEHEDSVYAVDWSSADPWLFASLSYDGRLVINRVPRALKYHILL
UniProt Q5BKX5: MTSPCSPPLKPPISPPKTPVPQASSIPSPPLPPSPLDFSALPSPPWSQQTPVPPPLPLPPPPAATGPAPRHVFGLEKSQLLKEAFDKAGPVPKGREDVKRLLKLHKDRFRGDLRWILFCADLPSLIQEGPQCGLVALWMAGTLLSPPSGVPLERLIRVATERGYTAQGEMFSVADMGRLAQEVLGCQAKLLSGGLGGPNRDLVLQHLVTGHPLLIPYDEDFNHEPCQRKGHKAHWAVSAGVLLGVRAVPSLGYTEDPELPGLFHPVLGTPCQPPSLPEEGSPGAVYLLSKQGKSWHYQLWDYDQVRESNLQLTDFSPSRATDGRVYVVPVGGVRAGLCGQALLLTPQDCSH

Compound: Nc1ncnc2c1ncn2[C@@H]1O[C@H](COP(=O)(O)OP(=O)(O)OP(=O)(O)O)[C@@H](O)[C@H]1O [adenosine triphosphate]
Experiment: NP40-soluble protein abundance relative to vehicle (solubility fold change) (ratio); higher = more soluble protein in presence of ATP
Conditions: concentration: 0.5mM
In short: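 Jurkat crude lysate prepared with a Dounce homogeniser was treated at eight concentrations spanning 0.1 to 10 mM, 10 min at room temperature then 3 min at 37 °C. Solubilisation with 0.8% NP40 and benzonase and ultracentrifugation preceded TMT labelling of the supernatant for LC-MS/MS. Fold change against the detergent-processed vehicle was determined per replicate from vsn-normalised intensities, across three independent experiments.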

Target	NP40-soluble protein abundance
UniProt Q5FWF5	1.13 ± 0.022
UniProt Q5TC82 and related entries	1.04 ± 0.051
UniProt Q5T2E6 and related entries	1.08 ± 0.14
UniProt Q5VW32	1.02 ± 0.052
RAB12 (UniProt Q6IQ22)	1.04 ± 0.051
RPRD2 (UniProt Q5VT52)	1.05 ± 0.046
UniProt Q5TCQ9 and related entries	0.967 ± 0.1
LMBRD2 (UniProt Q68DH5)	1.05 ± 0.064
UniProt Q5VST6	0.943 ± 0.043
NADSYN1 (UniProt Q6IA69)	1.01 ± 0.12
UniProt Q53H47 and related entries	1.01 ± 0.028
UniProt Q5T2D3	1.24 ± 0.24
PMF1 (UniProt Q6P1K2)	0.948 ± 0.05
UniProt Q5VTB9 and related entries	0.9555 ± 0.002
UniProt Q53EL6 and related entries	1.23 ± 0.11
UniProt Q5JTD0 and related entries	0.954 ± 0.014
UniProt Q68D10 and related entries	0.99 ± 0.029
ERAP2 (UniProt Q6P179)	0.954 ± 0.049
UniProt Q6P4R8 and related entries	1.04 ± 0.084

Target	NP40-soluble protein abundance
UniProt Q6P087 and related entries	0.952 ± 0.17
UniProt Q6DHV7-2|Q6DHV7 and related entries	1.02 ± 0.055
UniProt Q5JSH3 and related entries	0.987 ± 0.022
UniProt Q6P1J9	1.01 ± 0.043
ARHGAP17 (UniProt Q68EM7)	1.02 ± 0.045
RCSD1 (UniProt Q6JBY9)	0.816 ± 0.069
UniProt Q68CZ6	1 ± 0.033
UniProt Q5JS54 and related entries	0.91 ± 0.12
UniProt Q5T3I0 and related entries	1.13 ± 0.12
UniProt Q6GMV3	0.873 ± 0.15
Q5SZG2 and related entries (UniProt Q8TAK5)	0.925 ± 0.065
Q5VV50 and related entries (UniProt Q5VV52)	1.04 ± 0.029
NXN (UniProt Q6DKJ4)	1 ± 0.11
UniProt Q53HC9 and related entries	1.04 ± 0.067
UniProt Q6P2P2	1.05 ± 0.071
UniProt Q69YQ0 and related entries	0.96 ± 0.084
HS1BP3 (UniProt Q53T59)	1.03 ± 0.037
C19orf54 (UniProt Q5BKX5)	1 ± 0.082

Fetched one by one from the list above (two):
Target	NP40-soluble protein abundance
RCSD1 (UniProt Q6JBY9)	0.816 ± 0.069
ARHGAP17 (UniProt Q68EM7)	1.02 ± 0.045
